Assay results from PMC4152224.
No constants are given. Whether binding was seen depends on the method and setting. Binding seen in cells or lysates may run through a third protein. Some results given as binding are weak or reduced against the parent protein; the word gives no strength.

Sequences of proteins named here, by UniProt entry; tags and fusion partners are left off.
UniProt Q03135: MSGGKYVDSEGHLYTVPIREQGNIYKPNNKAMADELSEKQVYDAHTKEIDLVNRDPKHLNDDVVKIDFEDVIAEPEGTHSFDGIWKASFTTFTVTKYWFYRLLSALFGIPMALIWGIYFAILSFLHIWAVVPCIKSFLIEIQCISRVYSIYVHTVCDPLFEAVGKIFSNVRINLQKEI

Experiments:
[1] = target: T1, Vascular endothelial cadherin (human (endogenous in CRL-2922)) (UniProt P33151); test: co-IP; total protein of CRL-2922 cells after LPS (10 µg/mL, 1 h to 4 h), with or without CPZ, clathrin siRNA, filipin, Cav-1 siRNA, SU6656, CLI-095, Cyt D or Jasp; primary antibody overnight at 4°C, protein G-agarose 24 h, washed 4 times with radioimmunoprecipitation assay buffer, SDS-PAGE and blot, densitometry ratio
T1 sequence: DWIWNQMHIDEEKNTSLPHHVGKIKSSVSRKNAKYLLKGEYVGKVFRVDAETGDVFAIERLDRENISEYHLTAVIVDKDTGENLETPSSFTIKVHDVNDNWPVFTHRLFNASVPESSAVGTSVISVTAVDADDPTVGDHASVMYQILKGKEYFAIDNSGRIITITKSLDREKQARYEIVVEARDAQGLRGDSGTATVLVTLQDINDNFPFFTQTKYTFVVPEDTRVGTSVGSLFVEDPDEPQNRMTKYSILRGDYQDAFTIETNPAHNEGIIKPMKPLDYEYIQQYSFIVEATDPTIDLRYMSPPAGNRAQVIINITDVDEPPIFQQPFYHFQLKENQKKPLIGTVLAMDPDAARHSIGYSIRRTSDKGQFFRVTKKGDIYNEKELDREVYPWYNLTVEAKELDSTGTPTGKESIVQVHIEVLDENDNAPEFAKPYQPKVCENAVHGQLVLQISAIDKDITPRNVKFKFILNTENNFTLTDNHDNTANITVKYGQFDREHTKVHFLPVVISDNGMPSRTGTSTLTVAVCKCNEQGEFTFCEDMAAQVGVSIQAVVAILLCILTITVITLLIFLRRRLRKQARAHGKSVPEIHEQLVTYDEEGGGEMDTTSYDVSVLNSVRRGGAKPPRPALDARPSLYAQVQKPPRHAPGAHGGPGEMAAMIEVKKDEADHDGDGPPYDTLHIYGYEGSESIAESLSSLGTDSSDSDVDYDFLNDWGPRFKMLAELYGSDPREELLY

[2] = target: T1, Vascular endothelial cadherin (human (endogenous in CRL-2922)); test: co-IP; total protein of normal control CRL-2922 cells (no LPS); primary antibody overnight at 4°C, protein G-agarose 24 h, washed 4 times with radioimmunoprecipitation assay buffer, SDS-PAGE and blot

| binding [1] | binding [2] | Substance |
| --- | --- | --- |
| binds | – | Phospho-caveolin-1 (Tyr14) (from UniProt Q03135 1-178) |
| binds | binds weakly | Caveolin-1 (from UniProt Q03135 1-178) |
